Measured values published in patent EP0060954A1, “Derivatives of fluorophenacyl amines and their therapeutic use” (LABORATOIRE L. LAFON Société anonyme dite:, priority 1981, dated 1982).

Assays:
[1] = test system: chiens; assay: Cardiovascular action, intravenous perfusion in dogs; type: in vivo, chien
Description: Deux chiens reçoivent le CRL 40727 par voie intraveineuse, en perfusion de 6 min, aux doses successives de 0,1 mg/kg, 1 mg/kg, 2,5 mg/kg, 5 mg/kg, 10 mg/kg et 20 mg/kg. On messure leur pression artérielle, leur fréquence cardiaque, leur débit fémoral, leur température rectale.

[2] = test system: chiens; assay: Cardiovascular action, intraduodenal route in dogs; type: in vivo, chien; conditions: dog
Description: Trois chiens reçoivent le CRL 40727 par voie intraduodénale aux doses successives de 1 mg/kg, 2,5 mg/kg, 5 mg/kg et 10 mg/kg. On mesure les mêmes paramètres que ci-dessus. On observe ce qui suit.

## CC(C)NCC(=O)c1ccc(F)cc1 [CRL 40727, chlorhydratede N-(4-fluorophénacyl)-isopropylamine]
[1]; cumulated dose 38,5 mg/kg I.V.
  liquide biliaire (couleur): reste jaune
[1]; dog, i.v.
  température rectale: n'est pas modifiée
[1]; dog, i.v., doses 0,1 to 20 mg/kg
  liquide biliaire (couleur): reste jaune
[1]; one dog, supplementary dose of 40 mg/kg I.V.
  liquide biliaire (couleur): restant jaune
[2]
  dose from which la peau rosit très légèrement: 2,5 mg/kg
  liquide biliaire (couleur): reste jaune
  température rectale: n'est pas modifiée
